Reference: the supplement of paper PMC10849652
This is one part of the list.

Sequences of proteins named here, by UniProt entry; tags and fusion partners are left off. A change or cut given only in a name is not applied to a line headed by its entry.
UniProt O14617: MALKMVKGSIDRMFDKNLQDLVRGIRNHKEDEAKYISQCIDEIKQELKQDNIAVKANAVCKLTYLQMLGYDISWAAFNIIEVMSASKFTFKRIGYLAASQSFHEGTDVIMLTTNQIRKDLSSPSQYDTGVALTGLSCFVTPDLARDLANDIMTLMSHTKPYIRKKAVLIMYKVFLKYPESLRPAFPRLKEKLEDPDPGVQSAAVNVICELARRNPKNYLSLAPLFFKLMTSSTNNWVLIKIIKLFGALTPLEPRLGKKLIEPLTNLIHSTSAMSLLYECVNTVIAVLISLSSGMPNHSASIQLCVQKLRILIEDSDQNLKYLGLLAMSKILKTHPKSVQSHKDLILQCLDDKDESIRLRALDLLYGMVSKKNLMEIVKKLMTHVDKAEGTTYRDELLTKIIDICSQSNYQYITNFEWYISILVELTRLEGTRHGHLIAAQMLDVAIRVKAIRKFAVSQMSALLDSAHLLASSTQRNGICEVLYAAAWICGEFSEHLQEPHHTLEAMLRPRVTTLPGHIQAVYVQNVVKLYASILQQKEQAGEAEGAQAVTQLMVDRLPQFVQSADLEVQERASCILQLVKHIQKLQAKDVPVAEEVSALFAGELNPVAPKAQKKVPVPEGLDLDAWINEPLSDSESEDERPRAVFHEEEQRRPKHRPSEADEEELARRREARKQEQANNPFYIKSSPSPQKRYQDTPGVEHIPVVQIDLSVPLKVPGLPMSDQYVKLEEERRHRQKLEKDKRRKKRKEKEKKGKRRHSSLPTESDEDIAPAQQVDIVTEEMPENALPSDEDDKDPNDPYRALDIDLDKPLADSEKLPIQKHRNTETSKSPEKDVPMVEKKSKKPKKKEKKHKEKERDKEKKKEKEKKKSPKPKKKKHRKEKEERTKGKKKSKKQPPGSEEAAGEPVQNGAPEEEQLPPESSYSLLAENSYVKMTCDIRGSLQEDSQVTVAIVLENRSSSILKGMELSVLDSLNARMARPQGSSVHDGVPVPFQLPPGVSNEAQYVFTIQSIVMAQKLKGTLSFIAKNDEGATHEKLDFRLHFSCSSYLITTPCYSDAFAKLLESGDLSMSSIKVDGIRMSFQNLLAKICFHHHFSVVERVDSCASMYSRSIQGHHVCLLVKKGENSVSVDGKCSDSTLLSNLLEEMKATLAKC
UniProt Q8IWW6: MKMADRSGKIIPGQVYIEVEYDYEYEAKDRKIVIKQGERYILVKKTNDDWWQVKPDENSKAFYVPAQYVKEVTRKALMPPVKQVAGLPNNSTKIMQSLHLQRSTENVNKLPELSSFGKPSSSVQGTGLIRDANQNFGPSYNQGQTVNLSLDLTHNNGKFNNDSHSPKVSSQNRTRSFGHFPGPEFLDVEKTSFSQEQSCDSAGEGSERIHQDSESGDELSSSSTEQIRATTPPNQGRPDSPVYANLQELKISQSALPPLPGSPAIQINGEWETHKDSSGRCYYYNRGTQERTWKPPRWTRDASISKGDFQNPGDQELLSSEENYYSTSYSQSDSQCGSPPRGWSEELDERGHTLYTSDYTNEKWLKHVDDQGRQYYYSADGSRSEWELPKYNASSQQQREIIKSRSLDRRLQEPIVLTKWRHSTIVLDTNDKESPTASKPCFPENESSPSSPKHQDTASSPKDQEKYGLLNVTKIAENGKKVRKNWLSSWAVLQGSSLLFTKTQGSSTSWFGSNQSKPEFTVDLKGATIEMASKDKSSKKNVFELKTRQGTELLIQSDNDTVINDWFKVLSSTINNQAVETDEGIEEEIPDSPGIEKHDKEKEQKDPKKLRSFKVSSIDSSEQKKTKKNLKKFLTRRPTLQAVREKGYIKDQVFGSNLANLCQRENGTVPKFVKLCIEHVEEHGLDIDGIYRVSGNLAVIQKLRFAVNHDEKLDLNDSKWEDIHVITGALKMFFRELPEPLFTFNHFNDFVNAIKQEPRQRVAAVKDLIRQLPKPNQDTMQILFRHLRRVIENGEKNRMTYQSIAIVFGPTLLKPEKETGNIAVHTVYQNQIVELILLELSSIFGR
UniProt O15084: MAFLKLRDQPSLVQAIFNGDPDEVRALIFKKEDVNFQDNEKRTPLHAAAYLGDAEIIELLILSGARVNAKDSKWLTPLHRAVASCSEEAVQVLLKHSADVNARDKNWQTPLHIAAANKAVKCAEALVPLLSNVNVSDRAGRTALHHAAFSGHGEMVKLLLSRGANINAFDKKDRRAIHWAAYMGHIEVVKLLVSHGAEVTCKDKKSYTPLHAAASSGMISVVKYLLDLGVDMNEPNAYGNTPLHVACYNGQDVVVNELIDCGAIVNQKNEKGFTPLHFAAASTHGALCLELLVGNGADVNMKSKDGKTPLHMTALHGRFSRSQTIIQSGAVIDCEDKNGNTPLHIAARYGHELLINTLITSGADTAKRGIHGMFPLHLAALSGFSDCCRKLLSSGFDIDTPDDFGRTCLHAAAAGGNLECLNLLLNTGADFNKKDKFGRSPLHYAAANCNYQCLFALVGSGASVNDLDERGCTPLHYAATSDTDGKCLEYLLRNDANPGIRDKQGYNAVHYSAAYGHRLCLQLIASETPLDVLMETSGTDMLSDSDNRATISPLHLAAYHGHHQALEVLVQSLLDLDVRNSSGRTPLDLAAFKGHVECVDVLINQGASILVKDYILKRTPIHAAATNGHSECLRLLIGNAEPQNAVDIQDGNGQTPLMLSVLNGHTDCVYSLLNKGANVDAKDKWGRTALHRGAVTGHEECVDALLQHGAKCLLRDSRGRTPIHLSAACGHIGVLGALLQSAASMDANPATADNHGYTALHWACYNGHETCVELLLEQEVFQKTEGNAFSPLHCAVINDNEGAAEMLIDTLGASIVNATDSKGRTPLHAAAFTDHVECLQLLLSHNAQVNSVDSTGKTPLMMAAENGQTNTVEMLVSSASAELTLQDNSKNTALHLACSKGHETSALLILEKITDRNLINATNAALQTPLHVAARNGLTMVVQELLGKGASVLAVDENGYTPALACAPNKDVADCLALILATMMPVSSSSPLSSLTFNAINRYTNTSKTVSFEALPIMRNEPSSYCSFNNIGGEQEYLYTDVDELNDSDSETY
UniProt P39687: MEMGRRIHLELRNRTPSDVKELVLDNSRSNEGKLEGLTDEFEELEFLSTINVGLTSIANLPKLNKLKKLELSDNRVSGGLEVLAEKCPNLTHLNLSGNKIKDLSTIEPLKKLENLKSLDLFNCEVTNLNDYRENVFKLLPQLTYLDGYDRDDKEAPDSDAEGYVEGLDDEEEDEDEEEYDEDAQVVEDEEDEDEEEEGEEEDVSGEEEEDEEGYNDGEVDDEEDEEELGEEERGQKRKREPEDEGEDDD
UniProt Q96GX9: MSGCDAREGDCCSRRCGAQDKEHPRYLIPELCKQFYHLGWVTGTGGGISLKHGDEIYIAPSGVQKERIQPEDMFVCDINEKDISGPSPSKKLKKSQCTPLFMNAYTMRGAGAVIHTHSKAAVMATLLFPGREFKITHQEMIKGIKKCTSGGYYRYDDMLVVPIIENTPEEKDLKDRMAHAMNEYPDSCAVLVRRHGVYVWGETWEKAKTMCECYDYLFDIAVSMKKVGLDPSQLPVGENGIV
UniProt Q9BZZ5: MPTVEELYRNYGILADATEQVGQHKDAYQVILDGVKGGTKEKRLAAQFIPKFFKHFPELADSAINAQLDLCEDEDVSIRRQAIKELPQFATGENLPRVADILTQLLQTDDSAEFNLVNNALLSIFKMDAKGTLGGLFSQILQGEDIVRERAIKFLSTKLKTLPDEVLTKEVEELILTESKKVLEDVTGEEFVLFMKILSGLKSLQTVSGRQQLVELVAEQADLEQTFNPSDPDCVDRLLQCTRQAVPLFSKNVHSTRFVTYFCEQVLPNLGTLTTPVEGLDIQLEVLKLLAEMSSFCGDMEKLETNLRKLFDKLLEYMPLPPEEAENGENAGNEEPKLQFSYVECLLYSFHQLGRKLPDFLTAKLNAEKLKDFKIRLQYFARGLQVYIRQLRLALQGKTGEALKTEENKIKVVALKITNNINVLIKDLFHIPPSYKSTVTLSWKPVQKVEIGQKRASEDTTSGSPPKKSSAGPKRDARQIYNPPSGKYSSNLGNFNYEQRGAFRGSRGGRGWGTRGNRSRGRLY
UniProt P16157: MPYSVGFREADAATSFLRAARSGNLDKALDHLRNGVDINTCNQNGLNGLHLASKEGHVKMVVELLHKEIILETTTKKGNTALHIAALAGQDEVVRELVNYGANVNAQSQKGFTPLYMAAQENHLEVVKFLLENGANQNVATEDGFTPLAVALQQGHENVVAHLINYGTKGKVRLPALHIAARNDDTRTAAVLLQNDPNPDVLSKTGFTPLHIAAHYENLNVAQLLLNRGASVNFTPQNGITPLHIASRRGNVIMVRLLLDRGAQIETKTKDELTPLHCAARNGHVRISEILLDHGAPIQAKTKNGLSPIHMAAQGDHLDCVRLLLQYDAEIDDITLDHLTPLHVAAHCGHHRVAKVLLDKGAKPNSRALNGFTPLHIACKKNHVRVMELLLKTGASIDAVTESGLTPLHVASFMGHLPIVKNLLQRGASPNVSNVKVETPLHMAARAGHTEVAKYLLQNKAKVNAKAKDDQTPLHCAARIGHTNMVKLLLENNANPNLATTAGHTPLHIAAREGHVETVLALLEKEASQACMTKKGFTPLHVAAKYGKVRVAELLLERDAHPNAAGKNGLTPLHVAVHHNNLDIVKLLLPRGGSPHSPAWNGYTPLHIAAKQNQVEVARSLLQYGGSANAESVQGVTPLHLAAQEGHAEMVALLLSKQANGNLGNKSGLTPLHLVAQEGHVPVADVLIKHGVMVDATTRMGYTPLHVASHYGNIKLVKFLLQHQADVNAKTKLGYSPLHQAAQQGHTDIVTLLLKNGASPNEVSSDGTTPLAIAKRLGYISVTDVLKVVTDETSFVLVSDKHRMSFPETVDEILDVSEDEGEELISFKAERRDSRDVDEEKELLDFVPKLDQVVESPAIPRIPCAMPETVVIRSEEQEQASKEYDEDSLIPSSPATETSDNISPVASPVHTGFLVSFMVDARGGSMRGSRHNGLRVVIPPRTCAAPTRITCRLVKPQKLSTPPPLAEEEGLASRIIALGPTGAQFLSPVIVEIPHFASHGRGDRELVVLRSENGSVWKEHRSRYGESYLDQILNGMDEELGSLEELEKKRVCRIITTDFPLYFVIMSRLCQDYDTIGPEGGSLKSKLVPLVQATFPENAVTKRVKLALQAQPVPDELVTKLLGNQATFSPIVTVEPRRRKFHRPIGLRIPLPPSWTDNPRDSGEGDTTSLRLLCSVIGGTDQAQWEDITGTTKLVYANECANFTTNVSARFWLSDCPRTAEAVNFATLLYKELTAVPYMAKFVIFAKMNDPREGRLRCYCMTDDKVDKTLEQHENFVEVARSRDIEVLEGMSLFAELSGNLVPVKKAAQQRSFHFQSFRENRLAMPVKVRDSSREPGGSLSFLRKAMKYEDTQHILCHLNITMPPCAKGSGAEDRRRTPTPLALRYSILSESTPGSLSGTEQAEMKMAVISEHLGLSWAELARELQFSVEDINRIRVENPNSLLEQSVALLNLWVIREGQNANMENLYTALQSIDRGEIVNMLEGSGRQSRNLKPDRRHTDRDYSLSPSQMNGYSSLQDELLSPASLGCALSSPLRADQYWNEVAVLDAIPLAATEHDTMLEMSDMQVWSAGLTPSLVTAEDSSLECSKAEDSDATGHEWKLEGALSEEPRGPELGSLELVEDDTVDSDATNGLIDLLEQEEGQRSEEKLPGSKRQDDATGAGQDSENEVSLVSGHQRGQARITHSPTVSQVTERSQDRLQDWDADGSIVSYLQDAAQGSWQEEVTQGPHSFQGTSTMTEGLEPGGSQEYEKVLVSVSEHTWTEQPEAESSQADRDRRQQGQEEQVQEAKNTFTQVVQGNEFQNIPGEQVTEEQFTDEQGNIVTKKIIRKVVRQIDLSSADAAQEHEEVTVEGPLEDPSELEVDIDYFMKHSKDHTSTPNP
UniProt P52566: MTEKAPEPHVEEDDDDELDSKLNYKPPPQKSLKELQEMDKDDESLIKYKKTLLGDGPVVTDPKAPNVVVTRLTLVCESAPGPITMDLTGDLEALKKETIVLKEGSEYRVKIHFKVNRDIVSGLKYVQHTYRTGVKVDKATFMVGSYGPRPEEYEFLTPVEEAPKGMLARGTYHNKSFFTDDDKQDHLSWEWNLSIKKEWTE
UniProt Q9HDC9: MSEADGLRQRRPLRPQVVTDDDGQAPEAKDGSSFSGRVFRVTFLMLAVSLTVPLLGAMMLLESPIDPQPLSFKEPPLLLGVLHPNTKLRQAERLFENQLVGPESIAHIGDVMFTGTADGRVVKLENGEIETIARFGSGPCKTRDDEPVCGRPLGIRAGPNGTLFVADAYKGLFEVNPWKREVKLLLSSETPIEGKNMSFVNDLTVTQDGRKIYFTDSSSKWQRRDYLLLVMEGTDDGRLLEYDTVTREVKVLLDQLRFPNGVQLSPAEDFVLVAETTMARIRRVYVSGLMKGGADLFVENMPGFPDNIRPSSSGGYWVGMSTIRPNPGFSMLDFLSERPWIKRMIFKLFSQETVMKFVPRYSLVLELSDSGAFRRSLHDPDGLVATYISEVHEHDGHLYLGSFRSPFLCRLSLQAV

Experiments:
Test in all cases: log2 fold change, soluble protein after heating vs DMSO (PISA); higher = thermal stabilisation; K562 cells, 10 uM, 30 min; active = over 0.2 and 3.5 SD of the protein, either way, in both replicates (recomputed)
[1] = compound: CN1CCN(CCOc2cc(OC3CCOCC3)c3c(Nc4c(Cl)ccc5c4OCO5)ncnc3c2)CC1 [saracatinib]
How it was run: (§1)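 K562 cells at 2×10^6 cells/mL were given 10 μM compound for 30 min. Aliquots then went through 3 min of heating across 48°C-58°C, were pooled, and were extracted in PBS with 0.5% NP-40 at 4°C, and the supernatant after 21,000xg for 90 min was quantified by TMTpro 16plex LC-MS/MS with channel sums equalised. Thermal stability relative to control samples, from duplicates, is given as log2 fold change.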

[2] = compound: CN1CCN(c2nc(C3=C(c4c[nH]c5ccccc45)C(=O)NC3=O)c3ccccc3n2)CC1 [sotrastaurin]
How it was run: as §1

[3] = compound: CN1CC[C@H](c2c(O)cc(O)c3c(=O)cc(-c4ccccc4Cl)oc23)[C@H](O)C1 [alvocidib]
How it was run: as §1

[4] = compound: CN1CCc2c(c3ccccc3n2Cc2ccc(C(=O)NO)cc2)C1 [Tubastatin A]
How it was run: as §1

[5] = compound: CNC(=O)C1=CC=CC=C1NC2=NC(=NC=C2Cl)NC3=C(C=C(C=C3)N4CCOCC4)OC
How it was run: as §1

[6] = compound: CNC(=O)c1ccc(Nc2ncc(C(F)(F)F)c(NCc3nccnc3N(C)S(C)(=O)=O)n2)cc1 [defactinib]
How it was run: as §1

[7] = compound: CNCc1ccc(-c2[nH]c3cc(F)cc4c3c2CCNC4=O)cc1 [rucaparib]
How it was run: as §1

[8] = compound: CNc1nc(-c2ccc3c(N)n[nH]c3c2)cc(N2C[C@@H](C(=O)NC3CCCCC3)CC[C@H]2C)n1
How it was run: as §1

[9] = compound: COC(=O)N[C@@H](C)CNc1nccc(-c2cn(C(C)C)nc2-c2cc(Cl)cc(NS(C)(=O)=O)c2F)n1 [encorafenib]
How it was run: as §1

[10] = compound: COC(=O)[C@H](CCSC)NC(=O)C1=C(C=C(C=C1)NC[C@H](CS)N)C2=CC=CC=C2
How it was run: as §1

[11] = compound: COC1=CC=C(C=C1)CN2C=CC3=C2C=C(C=C3)C(=O)NO
How it was run: as §1

[12] = compound: CON(C)C(=O)N1N=C(c2cc(F)ccc2F)S[C@@]1(CCCN)c1ccccc1 [filanesib]
How it was run: as §1

[13] = compound: CO[C@H]1C[C@@H]2CC[C@@H](C)[C@@](O)(O2)C(=O)C(=O)N2CCCC[C@H]2C(=O)O[C@H]([C@H](C)C[C@@H]2CC[C@H](n3cnnn3)[C@H](OC)C2)CC(=O)[C@H](C)/C=C(\C)[C@@H](O)[C@@H](OC)C(=O)[C@H](C)C[C@H](C)/C=C/C=C/C=C/1C [zotarolimus]
How it was run: as §1

[14] = compound: COc1cc(C(=O)O)ccc1NC(=O)[C@@H]1N[C@@H](CC(C)(C)C)[C@](C#N)(c2ccc(Cl)cc2F)[C@H]1c1cccc(Cl)c1F [idasanutlin]
How it was run: as §1

[15] = compound: COc1cc(Nc2ncc3c(n2)-c2ccc(Cl)cc2C(c2c(F)cccc2OC)=NC3)ccc1C(=O)O [alisertib]
How it was run: as §1

[16] = compound: COc1cc2nc(-c3cc(F)ccc3O)nc(N[C@@H]3CNC[C@H]3C(C)(C)O)c2cc1OC
How it was run: as §1

[17] = compound: COc1cc2ncnc(Nc3ccc(F)c(Cl)c3)c2cc1OCCCN1CCOCC1 [gefitinib]
How it was run: as §1

[18] = compound: COc1cccc2cc(-c3nc([C@H]4CC[C@H](C(=O)O)CC4)n4ncnc(N)c34)[nH]c12
How it was run: as §1

[19] = compound: CS(=O)(=O)CCNCc1ccc(-c2ccc3ncnc(Nc4ccc(OCc5cccc(F)c5)c(Cl)c4)c3c2)o1 [lapatinib]
How it was run: as §1

[20] = compound: CS(=O)(=O)N1CCN(Cc2cc3nc(-c4cccc5[nH]ncc45)nc(N4CCOCC4)c3s2)CC1 [pictilisib]
How it was run: as §1

Measured: log2 fold change

AP3D1 isoform 5 (UniProt O14617)
inactive: [1] -0.087 | [2] -0.026 | [3] -0.018 | [4] 0.008 | [5] -0.011 | [6] -0.021 | [7] 0.065 | [8] 0.016 | [9] 0.064 | [10] -0.035 | [11] 0.029 | [12] 0.023 | [13] -0.03 | [14] -0.017 | [15] -0.026 | [16] 0.007 | [17] -0.02 | [18] -0.043 | [19] 0.021 | [20] -0.028

ARF6 (UniProt P62330)
inactive: [1] 0.012 | [2] 0.075 | [3] 0.001 | [4] -0.001 | [5] -0.077 | [6] 0.02 | [7] -0.044 | [8] 0.013 | [9] 0.017 | [10] 0.02 | [11] -0.065 | [12] 0.025 | [13] -0.024 | [14] -0.047 | [15] 0.009 | [16] 0.169 | [17] 0.026 | [18] 0.125 | [19] -0.008 | [20] -0.117

ARFIP2 (UniProt P53365)
inactive: [1] -0.029 | [2] -0.137 | [3] -0.096 | [4] 0 | [5] -0.25 | [6] -0.092 | [7] -0.053 | [8] -0.001 | [9] -0.01 | [10] 0.106 | [11] -0.148 | [12] -0.152 | [13] -0.083 | [14] 0.009 | [15] 0.061 | [16] -0.131 | [17] -0.074 | [18] 0.062 | [19] -0.014 | [20] -0.09

ARHGAP12 (UniProt Q8IWW6)
inactive: [1] -0.015 | [2] 0.047 | [3] 0.057 | [4] 0.176 | [5] 0.03 | [6] 0.005 | [7] 0.133 | [8] 0.046 | [9] -0.061 | [10] 0.01 | [11] 0.325 | [12] 0.028 | [13] 0.064 | [14] -0.067 | [15] -0.023 | [16] 0.125 | [17] 0.096 | [18] 0.078 | [19] 0.01 | [20] 0.016

ANKRD28 (UniProt O15084)
inactive: [1] 0.02 | [2] -0.013 | [3] -0.003 | [4] -0.001 | [5] 0.016 | [6] -0.041 | [7] -0.014 | [8] -0.002 | [9] 0.042 | [10] 0.009 | [11] 0.023 | [12] -0.023 | [13] -0.015 | [14] -0.027 | [15] -0.067 | [16] 0 | [17] 0.004 | [18] -0.001 | [19] 0.051 | [20] 0.045

ARID1A (UniProt O14497)
inactive: [1] -0.088 | [2] -0.103 | [3] -0.042 | [4] 0.189 | [5] 0.054 | [6] -0.168 | [7] -0.158 | [8] 0.092 | [9] 0.07 | [10] -0.079 | [11] 0.238 | [12] -0.106 | [13] -0.014 | [14] 0.119 | [15] -0.119 | [16] -0.012 | [17] 0.047 | [18] 0.072 | [19] 0.019 | [20] 0.022

ANP32A (UniProt P39687)
inactive: [1] 0.004 | [2] 0.003 | [3] -0.084 | [4] 0.005 | [5] -0.018 | [6] -0.071 | [7] -0.203 | [8] -0.015 | [9] 0.099 | [10] -0.003 | [11] 0.079 | [12] -0.014 | [13] 0.007 | [14] -0.055 | [15] 0.013 | [16] -0.066 | [17] 0.029 | [18] -0.034 | [19] 0.012 | [20] -0.052

ANAPC5 (UniProt Q9UJX4)
inactive: [1] -0.062 | [2] -0.019 | [3] -0.019 | [4] 0.037 | [5] 0.067 | [6] -0.013 | [7] -0.001 | [8] -0.015 | [9] 0.055 | [10] -0.005 | [11] 0.007 | [12] 0.018 | [13] 0.043 | [14] -0.004 | [15] -0.06 | [16] 0.015 | [17] -0.004 | [18] -0.024 | [19] 0.056 | [20] -0.064

Quoted from the entries so far (four entries):
ANKRD28 (UniProt O15084)
inactive: [1] 0.02 | [2] -0.013 | [3] -0.003 | [4] -0.001 | [5] 0.016 | [6] -0.041 | [7] -0.014 | [8] -0.002 | [9] 0.042 | [10] 0.009 | [11] 0.023 | [12] -0.023 | [13] -0.015 | [14] -0.027 | [15] -0.067 | [16] 0 | [17] 0.004 | [18] -0.001 | [19] 0.051 | [20] 0.045

ARID1A (UniProt O14497)
inactive: [1] -0.088 | [2] -0.103 | [3] -0.042 | [4] 0.189 | [5] 0.054 | [6] -0.168 | [7] -0.158 | [8] 0.092 | [9] 0.07 | [10] -0.079 | [11] 0.238 | [12] -0.106 | [13] -0.014 | [14] 0.119 | [15] -0.119 | [16] -0.012 | [17] 0.047 | [18] 0.072 | [19] 0.019 | [20] 0.022

ANP32A (UniProt P39687)
inactive: [1] 0.004 | [2] 0.003 | [3] -0.084 | [4] 0.005 | [5] -0.018 | [6] -0.071 | [7] -0.203 | [8] -0.015 | [9] 0.099 | [10] -0.003 | [11] 0.079 | [12] -0.014 | [13] 0.007 | [14] -0.055 | [15] 0.013 | [16] -0.066 | [17] 0.029 | [18] -0.034 | [19] 0.012 | [20] -0.052

ANAPC5 (UniProt Q9UJX4)
inactive: [1] -0.062 | [2] -0.019 | [3] -0.019 | [4] 0.037 | [5] 0.067 | [6] -0.013 | [7] -0.001 | [8] -0.015 | [9] 0.055 | [10] -0.005 | [11] 0.007 | [12] 0.018 | [13] 0.043 | [14] -0.004 | [15] -0.06 | [16] 0.015 | [17] -0.004 | [18] -0.024 | [19] 0.056 | [20] -0.064

Further entries follow.

ANAPC4 isoform 3 (UniProt Q9UJX5)
inactive: [1] 0.017 | [2] -0.05 | [3] -0.061 | [4] 0.004 | [5] 0.011 | [6] -0.009 | [7] 0.03 | [8] -0.008 | [9] 0.012 | [10] -0.013 | [11] -0.054 | [12] 0.026 | [13] 0.039 | [14] -0.004 | [15] -0.091 | [16] -0.025 | [17] -0.018 | [18] 0.002 | [19] 0.044 | [20] -0.024

APIP (UniProt Q96GX9)
inactive: [1] 0.039 | [2] 0.009 | [3] 0.034 | [4] -0.011 | [5] -0.012 | [6] -0.013 | [7] -0.069 | [8] -0.047 | [9] 0.018 | [10] 0.049 | [11] -0.036 | [12] -0.046 | [13] -0.055 | [14] -0.061 | [15] -0.005 | [16] -0.024 | [17] 0.011 | [18] 0.065 | [19] 0.005 | [20] 0.058

API5 isoform 2 (UniProt Q9BZZ5)
inactive: [1] 0.038 | [2] 0.015 | [3] -0.112 | [4] -0.027 | [5] 0.046 | [6] 0 | [7] 0.002 | [8] 0.007 | [9] -0.021 | [10] 0.098 | [11] 0.036 | [12] -0.062 | [13] 0.052 | [14] -0.029 | [15] 0.045 | [16] 0.046 | [17] 0.039 | [18] 0.037 | [19] -0.114 | [20] 0.068

APOE (UniProt P02649)
inactive: [1] 0.023 | [2] 0.07 | [3] -0.031 | [4] -0.043 | [5] 0.12 | [6] 0.079 | [7] -0.048 | [8] 0 | [9] -0.035 | [10] -0.022 | [11] 0.017 | [12] -0.042 | [13] 0.021 | [14] -0.051 | [15] -0.047 | [16] -0.121 | [17] 0.082 | [18] 0.089 | [19] 0.055 | [20] 0.021

ANK1 isoform 14 (UniProt P16157)
inactive: [1] -0.056 | [2] -0.17 | [3] 0.073 | [4] 0.141 | [5] 0.024 | [6] 0.121 | [7] 0.621 | [8] 0.075 | [9] 0.271 | [10] -0.08 | [11] 0.045 | [12] 0.515 | [13] 0.185 | [14] 0.306 | [15] -0.102 | [16] -0.169 | [17] 0.156 | [18] -0.299 | [19] 0.074 | [20] -0.035

ARHGDIB (UniProt P52566)
inactive: [1] -0.038 | [2] 0.032 | [3] -0.054 | [4] 0.001 | [5] -0.037 | [6] 0 | [7] -0.041 | [8] -0.02 | [9] 0.029 | [10] 0.013 | [11] -0.012 | [12] -0.016 | [13] 0.08 | [14] -0.001 | [15] 0.009 | [16] 0.128 | [17] 0.033 | [18] 0.023 | [19] -0.107 | [20] 0.058

ANXA3 (UniProt P12429)
inactive: [1] 0.041 | [2] 0.049 | [3] -0.021 | [4] -0.013 | [5] -0.019 | [6] 0.005 | [7] -0.06 | [8] -0.052 | [9] 0.063 | [10] -0.013 | [11] -0.03 | [12] -0.075 | [13] -0.002 | [14] -0.058 | [15] -0.007 | [16] 0.002 | [17] -0.006 | [18] 0.037 | [19] 0.029 | [20] -0.056

APMAP (UniProt Q9HDC9)
inactive: [1] 0.036 | [2] 0.036 | [3] 0.008 | [4] -0.035 | [5] 0.047 | [6] -0.014 | [7] -0.111 | [8] -0.021 | [9] -0.006 | [10] 0.01 | [11] -0.041 | [12] -0.025 | [13] -0.063 | [14] 0.044 | [15] -0.06 | [16] 0.026 | [17] 0.005 | [18] 0.047 | [19] -0.023 | [20] 0.018
